# ± gives the uncertainty stated by the source. This is one part of the list.
# System: Acinetobacter baumannii Mahidol
# Assay: percent growth relative to DMSO-treated control; higher = less growth inhibition
# Conditions: 10 µM; 18 h
row,Compound,percent growth [%]
1,O=C(NC1CCN(c2ccnc3ccccc23)C1)c1cccc(C(F)(F)F)c1 (stereo not drawn),94.5 ± 8.6
2,Cc1ccc(S(=O)(=O)Nc2ccc(CN3CCN(C(=O)c4cccc(C#N)c4)CC3)cc2)cc1,95.7 ± 9.9
3,CS(=O)(=O)c1cccc(-c2cnc3[nH]cc(-c4ccc(CCC(=O)O)cc4)c3c2)c1,85.9 ± 12
4,CC(C)(C)CN1C(=O)C(c2ccccc2)(c2ccccc2)N=C1N,87.3 ± 2.2
5,COc1ccc(-c2nnc3ccc(-c4cccc(C(C)C)c4)cn23)cc1OC,92.2 ± 14
6,CN1CCC(NCc2cccc(-c3ccc(S(=O)(=O)NCc4ccccc4)cc3)c2)CC1,92.8 ± 3.9
7,Cc1nc(-c2cccc(NCc3ccccc3)c2)[nH]c1C,100 ± 4.3
8,CC1CCCN(C(=O)C(C)Nc2cc(Cl)ccc2N2CCOCC2)C1 (stereo not drawn),94.2 ± 3.3
9,Nc1ncnc2c1c(-c1cnc3ccccc3c1)nn2CC1CCNCC1,97.2 ± 4.6
10,COc1ccc(C2=NN(C3CCCCCC3)C(=O)[C@@H]3CC=CC[C@H]23)cc1OCCCCOc1ccc(-c2nn[nH]n2)cc1,79.7 ± 73
11,OC[C@H]1O[C@@H](n2c3ccc(Cl)cc3c3c(-c4cc5ccccc5o4)ncnc32)C(O)[C@H]1O (stereo partly drawn),83 ± 10
12,CCc1cc(=O)n(C)c(SC(C)C(=O)Nc2ccc(F)cc2)n1 (stereo not drawn),98 ± 6.2
13,CCC(Sc1nc2ccccc2o1)C(=O)Nc1nccs1 (stereo not drawn),102 ± 11
14,CC(C)(CN)c1nc(-c2ccc(Cl)c(O)c2)c(-c2ccnc(N)n2)[nH]1,107 ± 4.8
15,O=C(Nc1ccc(F)c(-c2nc3cc(-c4ccccc4)cnc3[nH]2)c1)N1CCCC1,92.2 ± 2.6
16,N=C(N)Nc1ccc(-c2ccc(-c3ccc(N=C(N)N)c(Cl)c3)o2)cc1Cl,23.4 ± 44
17,CCCCc1ccc(C(=O)Nc2nccc3ccccc23)nc1,81.8 ± 22
18,COc1cc(OC)cc(C(=O)NCC2Cc3cc(Cl)cc(-c4ccncc4)c3O2)c1 (stereo not drawn),89.7 ± 6.3
19,N#CCN(CCCCN1CCN(c2ccc(F)cc2)CC1)C(=O)OCc1ccccc1,78.6 ± 52
20,CCOc1ccc(-c2nc(NC(=O)CS(=O)(=O)c3ccccc3)sc2C)cc1,70.5 ± 24

row,Compound,percent growth [%]
1,Clc1ccc(Cl)c(CO[C@H]2CCCC[C@@H]2n2ccnc2)c1,92.8 ± 6.9
2,COc1cc2ncnc(NC3CCN(Cc4ccccc4)CC3)c2cc1OC,90.2 ± 35
3,CC1=Nc2ccc(Cl)cc2C(c2ccccc2)N1CCNC(=O)CN(C)C (stereo not drawn),90.6 ± 5.9
4,O=C(Nc1ccc(C(F)(F)F)c(C(F)(F)F)c1)c1cc(Cl)ccc1O,47.2 ± 36
5,CC(=O)N1CCN(c2ccc(Oc3ccc(Cl)cc3O)cc2)CC1,90.1 ± 9.2
6,COc1ccc(-c2onc(C(F)(F)F)c2-c2ccc(Cl)cc2)c(O)c1,83.7 ± 4.2
7,Cc1cc(C)n2nc(C(=O)Nc3cc(C(F)(F)F)ccc3N3CCOCC3)nc2n1,61.4 ± 31
8,COc1ccccc1CNC(=O)c1cc(C2CC2)nc2c1cnn2C(C)C,102 ± 9.1
9,C[C@H](C(N)=O)N1CCCC[C@@H]1c1ccc(OCc2cccc(F)c2)cc1,98.4 ± 12
10,CC1(C)Cc2c(c(N3CCOCC3)nc3snc(Br)c23)CO1,97.3 ± 6.7
11,COc1ccc(-c2nn(C(C)C)c3ncnc(N)c23)cc1OC,91 ± 9.2
12,Cn1ccnc1CNCCS(=O)(=O)c1cccc(Nc2ccc(-c3cccc(F)c3)cn2)c1,68.6 ± 46
13,CC(C)(C)n1nc(Cc2cccc3ccccc23)c2c(N)ncnc21,96.4 ± 2.6
14,CC1=Nc2ccc(Cl)cc2C(O)(c2ccc(C)cc2)N1CCN1CCCCC1 (stereo not drawn),93.4 ± 7.7
15,C[C@@H]1[C@H](O)[C@@H](C)/C=C/C=C/C=C/C=C/C=C/C=C/C=C/[C@H](O[C@@H]2O[C@H](C)[C@@H](O)[C@H](N)[C@@H]2O)C[C@@H]2O[C@](O)(C[C@@H](O)C[C@@H](O)[C@H](O)CC[C@@H](O)C[C@@H](O)CC(=O)O[C@H]1C)C[C@H](O)[C@H]2C(=O)O,85.7 ± 18
16,Cc1nn(C(=O)Nc2cccc(C(F)(F)F)c2)c(C)c1Sc1ncccn1,97.5 ± 11
17,CCS(=O)(=O)N(Cc1ccco1)Cc1cc2ccc(C)cc2nc1O,91.1 ± 9.2
18,Cc1nn2c(O)c3c(nc2c1-c1ccc(F)cc1)CCCC3,85.1 ± 15
19,O=C(NCc1ccoc1)N1CCN(Cc2ccc3c(c2)OCO3)CC1,89 ± 39

# System: Acinetobacter baumannii Naval-81
# Assay: as above
# Conditions: 10 µM; 18 h
row,Compound,percent growth [%]
1,O=C(NC1CCN(c2ccnc3ccccc23)C1)c1cccc(C(F)(F)F)c1 (stereo not drawn),79.3 ± 12
2,Cc1ccc(S(=O)(=O)Nc2ccc(CN3CCN(C(=O)c4cccc(C#N)c4)CC3)cc2)cc1,97.1 ± 14
3,CS(=O)(=O)c1cccc(-c2cnc3[nH]cc(-c4ccc(CCC(=O)O)cc4)c3c2)c1,85.9 ± 4.8
4,CC(C)(C)CN1C(=O)C(c2ccccc2)(c2ccccc2)N=C1N,92.3 ± 14
5,COc1ccc(-c2nnc3ccc(-c4cccc(C(C)C)c4)cn23)cc1OC,101 ± 7.6
6,CN1CCC(NCc2cccc(-c3ccc(S(=O)(=O)NCc4ccccc4)cc3)c2)CC1,89.7 ± 4.8
7,Cc1nc(-c2cccc(NCc3ccccc3)c2)[nH]c1C,69.3 ± 53
8,CC1CCCN(C(=O)C(C)Nc2cc(Cl)ccc2N2CCOCC2)C1 (stereo not drawn),96.8 ± 6
9,Nc1ncnc2c1c(-c1cnc3ccccc3c1)nn2CC1CCNCC1,94.5 ± 26
10,COc1ccc(C2=NN(C3CCCCCC3)C(=O)[C@@H]3CC=CC[C@H]23)cc1OCCCCOc1ccc(-c2nn[nH]n2)cc1,86.6 ± 9.4
11,OC[C@H]1O[C@@H](n2c3ccc(Cl)cc3c3c(-c4cc5ccccc5o4)ncnc32)C(O)[C@H]1O (stereo partly drawn),101 ± 13
12,CCc1cc(=O)n(C)c(SC(C)C(=O)Nc2ccc(F)cc2)n1 (stereo not drawn),99.5 ± 11
13,CCC(Sc1nc2ccccc2o1)C(=O)Nc1nccs1 (stereo not drawn),70.7 ± 20
14,CC(C)(CN)c1nc(-c2ccc(Cl)c(O)c2)c(-c2ccnc(N)n2)[nH]1,67.4 ± 24
15,O=C(Nc1ccc(F)c(-c2nc3cc(-c4ccccc4)cnc3[nH]2)c1)N1CCCC1,93.4 ± 16
16,N=C(N)Nc1ccc(-c2ccc(-c3ccc(N=C(N)N)c(Cl)c3)o2)cc1Cl,80.3 ± 11
17,CCCCc1ccc(C(=O)Nc2nccc3ccccc23)nc1,95.4 ± 2.4
18,COc1cc(OC)cc(C(=O)NCC2Cc3cc(Cl)cc(-c4ccncc4)c3O2)c1 (stereo not drawn),94.2 ± 19
19,N#CCN(CCCCN1CCN(c2ccc(F)cc2)CC1)C(=O)OCc1ccccc1,84.8 ± 7.9
20,CCOc1ccc(-c2nc(NC(=O)CS(=O)(=O)c3ccccc3)sc2C)cc1,85.8 ± 12

row,Compound,percent growth [%]
1,Clc1ccc(Cl)c(CO[C@H]2CCCC[C@@H]2n2ccnc2)c1,109 ± 17
2,COc1cc2ncnc(NC3CCN(Cc4ccccc4)CC3)c2cc1OC,87.1 ± 23
3,CC1=Nc2ccc(Cl)cc2C(c2ccccc2)N1CCNC(=O)CN(C)C (stereo not drawn),95.8 ± 6.3
4,O=C(Nc1ccc(C(F)(F)F)c(C(F)(F)F)c1)c1cc(Cl)ccc1O,87.3 ± 19
5,CC(=O)N1CCN(c2ccc(Oc3ccc(Cl)cc3O)cc2)CC1,80.1 ± 17
6,COc1ccc(-c2onc(C(F)(F)F)c2-c2ccc(Cl)cc2)c(O)c1,92.3 ± 5.9
7,Cc1cc(C)n2nc(C(=O)Nc3cc(C(F)(F)F)ccc3N3CCOCC3)nc2n1,102 ± 30
8,COc1ccccc1CNC(=O)c1cc(C2CC2)nc2c1cnn2C(C)C,107 ± 49
9,C[C@H](C(N)=O)N1CCCC[C@@H]1c1ccc(OCc2cccc(F)c2)cc1,87.9 ± 29
10,CC1(C)Cc2c(c(N3CCOCC3)nc3snc(Br)c23)CO1,83.7 ± 16
11,COc1ccc(-c2nn(C(C)C)c3ncnc(N)c23)cc1OC,100 ± 15
12,Cn1ccnc1CNCCS(=O)(=O)c1cccc(Nc2ccc(-c3cccc(F)c3)cn2)c1,91.3 ± 13
13,CC(C)(C)n1nc(Cc2cccc3ccccc23)c2c(N)ncnc21,84.8 ± 58
14,CC1=Nc2ccc(Cl)cc2C(O)(c2ccc(C)cc2)N1CCN1CCCCC1 (stereo not drawn),94.8 ± 12
15,C[C@@H]1[C@H](O)[C@@H](C)/C=C/C=C/C=C/C=C/C=C/C=C/C=C/[C@H](O[C@@H]2O[C@H](C)[C@@H](O)[C@H](N)[C@@H]2O)C[C@@H]2O[C@](O)(C[C@@H](O)C[C@@H](O)[C@H](O)CC[C@@H](O)C[C@@H](O)CC(=O)O[C@H]1C)C[C@H](O)[C@H]2C(=O)O,56.3 ± 41
16,Cc1nn(C(=O)Nc2cccc(C(F)(F)F)c2)c(C)c1Sc1ncccn1,73.7 ± 24
17,CCS(=O)(=O)N(Cc1ccco1)Cc1cc2ccc(C)cc2nc1O,82.6 ± 14
18,Cc1nn2c(O)c3c(nc2c1-c1ccc(F)cc1)CCCC3,91.67 ± 0.48
19,O=C(NCc1ccoc1)N1CCN(Cc2ccc3c(c2)OCO3)CC1,81.6 ± 5.9
